Source: the supplement of paper PMC10849652
The other results are listed elsewhere or left out.

Amino acid sequences for entries named in this document (tags omitted). A change or cut given only in a name is not applied to a line headed by its entry.
UniProt Q9BW30: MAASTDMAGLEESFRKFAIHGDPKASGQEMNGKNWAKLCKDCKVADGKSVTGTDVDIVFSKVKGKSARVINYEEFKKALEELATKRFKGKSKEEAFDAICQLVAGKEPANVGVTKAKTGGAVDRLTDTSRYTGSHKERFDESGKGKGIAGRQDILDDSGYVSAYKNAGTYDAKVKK
UniProt P22105: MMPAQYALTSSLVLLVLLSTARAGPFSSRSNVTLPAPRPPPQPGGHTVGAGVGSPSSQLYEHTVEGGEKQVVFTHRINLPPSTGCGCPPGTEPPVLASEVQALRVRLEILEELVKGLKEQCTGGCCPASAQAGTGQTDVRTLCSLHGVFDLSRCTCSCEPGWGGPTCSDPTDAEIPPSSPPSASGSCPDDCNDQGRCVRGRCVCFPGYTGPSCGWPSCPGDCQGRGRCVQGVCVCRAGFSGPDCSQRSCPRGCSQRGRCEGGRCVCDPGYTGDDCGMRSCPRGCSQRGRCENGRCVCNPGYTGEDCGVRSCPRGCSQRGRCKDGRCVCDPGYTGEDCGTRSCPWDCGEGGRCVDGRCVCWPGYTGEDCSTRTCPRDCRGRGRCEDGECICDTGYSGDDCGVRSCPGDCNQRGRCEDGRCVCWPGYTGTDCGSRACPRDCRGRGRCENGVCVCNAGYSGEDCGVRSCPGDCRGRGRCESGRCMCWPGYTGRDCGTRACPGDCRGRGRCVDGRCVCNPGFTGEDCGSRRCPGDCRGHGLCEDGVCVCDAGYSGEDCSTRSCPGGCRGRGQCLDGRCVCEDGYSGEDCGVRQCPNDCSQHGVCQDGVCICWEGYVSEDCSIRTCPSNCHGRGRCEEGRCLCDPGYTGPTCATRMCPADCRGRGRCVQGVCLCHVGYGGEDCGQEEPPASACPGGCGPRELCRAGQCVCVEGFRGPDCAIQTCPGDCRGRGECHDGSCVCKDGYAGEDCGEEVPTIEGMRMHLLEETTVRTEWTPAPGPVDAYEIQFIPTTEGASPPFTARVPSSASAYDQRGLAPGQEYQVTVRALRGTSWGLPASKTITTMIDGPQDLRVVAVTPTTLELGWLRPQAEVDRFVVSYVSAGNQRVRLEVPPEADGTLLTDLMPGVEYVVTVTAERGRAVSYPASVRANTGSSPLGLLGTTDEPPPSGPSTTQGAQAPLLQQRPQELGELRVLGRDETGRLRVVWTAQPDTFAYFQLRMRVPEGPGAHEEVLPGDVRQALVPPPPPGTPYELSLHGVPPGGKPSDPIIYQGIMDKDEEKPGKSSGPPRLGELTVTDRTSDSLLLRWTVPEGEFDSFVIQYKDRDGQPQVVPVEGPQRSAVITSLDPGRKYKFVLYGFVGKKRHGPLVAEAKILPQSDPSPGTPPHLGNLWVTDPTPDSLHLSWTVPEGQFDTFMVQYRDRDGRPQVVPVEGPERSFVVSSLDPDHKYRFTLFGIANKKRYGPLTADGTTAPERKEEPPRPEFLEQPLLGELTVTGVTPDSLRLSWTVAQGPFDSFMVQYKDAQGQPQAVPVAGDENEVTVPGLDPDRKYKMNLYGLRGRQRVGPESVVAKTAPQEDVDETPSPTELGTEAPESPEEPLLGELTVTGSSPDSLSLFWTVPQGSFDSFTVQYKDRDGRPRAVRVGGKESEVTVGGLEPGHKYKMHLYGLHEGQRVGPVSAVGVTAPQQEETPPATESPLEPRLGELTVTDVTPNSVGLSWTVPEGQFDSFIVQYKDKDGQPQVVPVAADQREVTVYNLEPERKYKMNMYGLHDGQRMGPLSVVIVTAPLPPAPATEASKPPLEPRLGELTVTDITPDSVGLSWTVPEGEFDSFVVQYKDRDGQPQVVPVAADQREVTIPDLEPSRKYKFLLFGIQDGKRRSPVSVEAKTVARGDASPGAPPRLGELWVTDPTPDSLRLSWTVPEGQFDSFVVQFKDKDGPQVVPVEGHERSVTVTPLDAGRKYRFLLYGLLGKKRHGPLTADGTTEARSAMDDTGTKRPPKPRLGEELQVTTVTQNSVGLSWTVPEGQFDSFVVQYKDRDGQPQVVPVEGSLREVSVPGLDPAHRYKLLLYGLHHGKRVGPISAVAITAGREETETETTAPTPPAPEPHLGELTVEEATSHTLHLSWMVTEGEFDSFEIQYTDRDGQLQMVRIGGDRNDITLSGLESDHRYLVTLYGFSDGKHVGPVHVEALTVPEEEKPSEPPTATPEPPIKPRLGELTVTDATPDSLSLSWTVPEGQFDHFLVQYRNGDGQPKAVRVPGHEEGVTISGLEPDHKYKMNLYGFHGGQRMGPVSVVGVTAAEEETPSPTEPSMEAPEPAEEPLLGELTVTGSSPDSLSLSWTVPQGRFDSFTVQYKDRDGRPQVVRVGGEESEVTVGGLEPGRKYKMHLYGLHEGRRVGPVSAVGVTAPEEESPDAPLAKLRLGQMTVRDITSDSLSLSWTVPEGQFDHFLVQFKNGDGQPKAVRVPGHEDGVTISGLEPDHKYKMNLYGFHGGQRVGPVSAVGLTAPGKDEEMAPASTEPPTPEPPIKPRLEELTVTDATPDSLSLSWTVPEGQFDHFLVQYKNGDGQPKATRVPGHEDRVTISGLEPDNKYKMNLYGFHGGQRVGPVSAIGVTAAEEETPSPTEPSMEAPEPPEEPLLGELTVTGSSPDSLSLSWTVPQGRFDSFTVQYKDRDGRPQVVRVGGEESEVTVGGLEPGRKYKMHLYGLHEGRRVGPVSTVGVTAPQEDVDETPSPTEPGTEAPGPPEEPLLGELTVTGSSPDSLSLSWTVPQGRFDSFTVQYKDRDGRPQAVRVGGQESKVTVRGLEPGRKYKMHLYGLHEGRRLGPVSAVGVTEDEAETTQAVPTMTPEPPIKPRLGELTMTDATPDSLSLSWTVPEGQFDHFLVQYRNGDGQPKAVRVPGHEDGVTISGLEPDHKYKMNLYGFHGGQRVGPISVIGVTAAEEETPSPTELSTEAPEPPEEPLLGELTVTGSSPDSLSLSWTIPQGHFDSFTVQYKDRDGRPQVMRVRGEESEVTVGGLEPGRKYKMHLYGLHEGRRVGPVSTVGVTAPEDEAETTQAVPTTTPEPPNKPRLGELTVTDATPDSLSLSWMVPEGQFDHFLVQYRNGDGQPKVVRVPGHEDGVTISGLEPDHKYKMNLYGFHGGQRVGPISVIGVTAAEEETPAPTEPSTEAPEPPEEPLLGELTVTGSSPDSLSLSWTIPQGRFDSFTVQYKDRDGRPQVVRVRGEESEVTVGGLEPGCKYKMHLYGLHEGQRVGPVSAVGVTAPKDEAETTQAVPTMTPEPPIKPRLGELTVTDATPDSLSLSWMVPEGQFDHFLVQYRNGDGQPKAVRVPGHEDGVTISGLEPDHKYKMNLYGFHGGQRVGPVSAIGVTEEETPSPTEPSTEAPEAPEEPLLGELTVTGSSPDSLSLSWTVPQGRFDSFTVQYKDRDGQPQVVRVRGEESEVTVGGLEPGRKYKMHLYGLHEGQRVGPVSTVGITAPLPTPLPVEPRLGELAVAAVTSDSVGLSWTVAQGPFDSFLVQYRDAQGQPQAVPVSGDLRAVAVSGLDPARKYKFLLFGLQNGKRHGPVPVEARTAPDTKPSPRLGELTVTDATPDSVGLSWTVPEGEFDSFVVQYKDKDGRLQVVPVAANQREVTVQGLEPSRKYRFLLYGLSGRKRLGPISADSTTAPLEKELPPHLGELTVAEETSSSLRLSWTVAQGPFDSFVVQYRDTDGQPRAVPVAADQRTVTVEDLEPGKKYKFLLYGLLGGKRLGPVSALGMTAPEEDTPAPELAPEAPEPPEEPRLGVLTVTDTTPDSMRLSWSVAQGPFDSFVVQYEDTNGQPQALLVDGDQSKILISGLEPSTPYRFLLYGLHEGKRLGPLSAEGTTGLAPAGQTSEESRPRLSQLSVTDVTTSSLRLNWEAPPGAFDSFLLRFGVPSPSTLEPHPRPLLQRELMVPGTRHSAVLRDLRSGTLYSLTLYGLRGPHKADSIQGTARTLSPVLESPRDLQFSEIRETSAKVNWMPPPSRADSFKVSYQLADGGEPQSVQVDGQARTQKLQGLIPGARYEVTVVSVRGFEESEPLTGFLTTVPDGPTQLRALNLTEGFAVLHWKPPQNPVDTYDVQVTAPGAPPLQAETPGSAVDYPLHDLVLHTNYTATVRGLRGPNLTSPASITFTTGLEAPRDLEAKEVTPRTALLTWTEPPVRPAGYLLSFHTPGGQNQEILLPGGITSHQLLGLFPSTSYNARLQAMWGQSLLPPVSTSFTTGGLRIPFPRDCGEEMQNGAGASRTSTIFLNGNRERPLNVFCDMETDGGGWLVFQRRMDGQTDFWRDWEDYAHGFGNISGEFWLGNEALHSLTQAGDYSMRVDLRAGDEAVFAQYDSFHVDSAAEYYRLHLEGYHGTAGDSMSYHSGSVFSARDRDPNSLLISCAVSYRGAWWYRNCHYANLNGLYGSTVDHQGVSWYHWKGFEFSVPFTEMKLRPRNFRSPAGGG
UniProt Q86W33: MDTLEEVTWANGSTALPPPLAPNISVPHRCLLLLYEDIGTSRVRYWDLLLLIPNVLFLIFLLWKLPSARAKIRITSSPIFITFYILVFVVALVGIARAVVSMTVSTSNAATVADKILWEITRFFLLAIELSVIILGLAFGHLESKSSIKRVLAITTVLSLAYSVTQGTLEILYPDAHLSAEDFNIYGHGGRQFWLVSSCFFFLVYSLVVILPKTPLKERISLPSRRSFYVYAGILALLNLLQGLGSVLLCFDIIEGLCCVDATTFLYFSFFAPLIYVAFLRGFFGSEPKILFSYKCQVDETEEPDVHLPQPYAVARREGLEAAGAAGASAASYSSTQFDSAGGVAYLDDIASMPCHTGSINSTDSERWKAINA
UniProt Q9H496: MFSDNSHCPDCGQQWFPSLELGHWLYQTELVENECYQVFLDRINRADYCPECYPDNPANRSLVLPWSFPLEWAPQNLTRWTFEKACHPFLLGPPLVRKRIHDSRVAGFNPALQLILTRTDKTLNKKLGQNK
UniProt Q9H3H1: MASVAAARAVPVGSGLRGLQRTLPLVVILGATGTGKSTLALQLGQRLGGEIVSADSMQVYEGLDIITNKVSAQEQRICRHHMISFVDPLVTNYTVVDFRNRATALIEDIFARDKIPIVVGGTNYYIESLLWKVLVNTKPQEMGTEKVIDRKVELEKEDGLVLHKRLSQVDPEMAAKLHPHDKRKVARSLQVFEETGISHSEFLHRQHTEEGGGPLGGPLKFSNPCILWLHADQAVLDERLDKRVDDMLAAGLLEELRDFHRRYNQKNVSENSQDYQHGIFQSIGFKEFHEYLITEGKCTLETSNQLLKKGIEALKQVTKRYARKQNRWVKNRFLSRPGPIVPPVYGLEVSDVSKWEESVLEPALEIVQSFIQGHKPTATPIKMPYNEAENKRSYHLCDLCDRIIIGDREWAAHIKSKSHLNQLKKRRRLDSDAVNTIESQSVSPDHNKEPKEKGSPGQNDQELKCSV
UniProt Q8WV44: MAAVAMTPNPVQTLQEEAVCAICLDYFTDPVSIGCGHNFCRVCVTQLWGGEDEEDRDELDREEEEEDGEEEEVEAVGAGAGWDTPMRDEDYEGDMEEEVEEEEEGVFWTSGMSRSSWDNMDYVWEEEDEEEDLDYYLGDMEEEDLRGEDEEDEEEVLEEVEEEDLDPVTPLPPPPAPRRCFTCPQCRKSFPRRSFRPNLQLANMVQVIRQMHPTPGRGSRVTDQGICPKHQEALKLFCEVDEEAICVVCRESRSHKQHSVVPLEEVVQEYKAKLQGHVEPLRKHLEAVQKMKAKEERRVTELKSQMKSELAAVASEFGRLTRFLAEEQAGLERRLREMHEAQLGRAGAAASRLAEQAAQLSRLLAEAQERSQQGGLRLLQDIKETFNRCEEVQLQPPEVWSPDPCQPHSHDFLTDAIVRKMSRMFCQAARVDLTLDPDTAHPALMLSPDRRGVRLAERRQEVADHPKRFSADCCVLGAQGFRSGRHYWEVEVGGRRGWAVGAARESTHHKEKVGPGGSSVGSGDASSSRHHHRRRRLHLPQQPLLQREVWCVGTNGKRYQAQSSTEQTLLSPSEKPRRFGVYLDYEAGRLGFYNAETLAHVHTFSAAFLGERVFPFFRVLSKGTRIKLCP
UniProt Q13114: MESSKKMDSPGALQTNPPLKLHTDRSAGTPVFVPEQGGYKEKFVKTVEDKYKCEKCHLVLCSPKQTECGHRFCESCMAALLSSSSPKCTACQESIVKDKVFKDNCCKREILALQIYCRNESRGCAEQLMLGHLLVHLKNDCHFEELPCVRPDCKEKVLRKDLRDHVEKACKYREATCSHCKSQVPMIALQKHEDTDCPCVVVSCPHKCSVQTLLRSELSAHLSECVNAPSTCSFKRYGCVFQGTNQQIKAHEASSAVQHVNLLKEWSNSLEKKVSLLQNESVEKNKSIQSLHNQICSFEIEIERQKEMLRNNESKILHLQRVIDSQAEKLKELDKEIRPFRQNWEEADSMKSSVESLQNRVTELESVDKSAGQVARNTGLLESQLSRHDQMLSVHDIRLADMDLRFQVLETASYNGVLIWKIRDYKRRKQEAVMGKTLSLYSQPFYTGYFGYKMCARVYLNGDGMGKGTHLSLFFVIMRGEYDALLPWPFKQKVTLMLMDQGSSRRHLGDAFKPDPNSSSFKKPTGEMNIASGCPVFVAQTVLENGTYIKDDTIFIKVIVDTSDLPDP

Columns and labels:
Test in all cases: log2 fold change, soluble protein after heating vs DMSO (PISA); higher = thermal stabilisation; K562 cells, 10 uM, 30 min; active = over 0.2 and 3.5 SD of the protein, either way, in both replicates (recomputed)
saracatinib = compound: CN1CCN(CCOc2cc(OC3CCOCC3)c3c(Nc4c(Cl)ccc5c4OCO5)ncnc3c2)CC1 [saracatinib]
Outline: (§1)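 K562 cells at 2×10^6 cells/mL were treated for 30 min with 10 μM compound, and aliquots were heated for 3 min over 48°C-58°C before pooling. Extraction used PBS with 0.5% NP-40 at 4°C, and soluble protein was the supernatant after 21,000xg for 90 min, measured by TMTpro 16plex LC-MS/MS with channel sums equalised. Thermal stability values, relative to control samples and from duplicates, are log2 fold changes.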

[1] = compound: CNC(=O)C1=CC=CC=C1NC2=NC(=NC=C2Cl)NC3=C(C=C(C=C3)N4CCOCC4)OC
Outline: as §1

defactinib = compound: CNC(=O)c1ccc(Nc2ncc(C(F)(F)F)c(NCc3nccnc3N(C)S(C)(=O)=O)n2)cc1 [defactinib]
Outline: as §1

[2] = compound: CNc1nc(-c2ccc3c(N)n[nH]c3c2)cc(N2C[C@@H](C(=O)NC3CCCCC3)CC[C@H]2C)n1
Outline: as §1

[3] = compound: COC(=O)[C@H](CCSC)NC(=O)C1=C(C=C(C=C1)NC[C@H](CS)N)C2=CC=CC=C2
Outline: as §1

idasanutlin = compound: COc1cc(C(=O)O)ccc1NC(=O)[C@@H]1N[C@@H](CC(C)(C)C)[C@](C#N)(c2ccc(Cl)cc2F)[C@H]1c1cccc(Cl)c1F [idasanutlin]
Outline: as §1

alisertib = compound: COc1cc(Nc2ncc3c(n2)-c2ccc(Cl)cc2C(c2c(F)cccc2OC)=NC3)ccc1C(=O)O [alisertib]
Outline: as §1

gefitinib = compound: COc1cc2ncnc(Nc3ccc(F)c(Cl)c3)c2cc1OCCCN1CCOCC1 [gefitinib]
Outline: as §1

[4] = compound: COc1cccc2cc(-c3nc([C@H]4CC[C@H](C(=O)O)CC4)n4ncnc(N)c34)[nH]c12
Outline: as §1

sotrastaurin = compound: CN1CCN(c2nc(C3=C(c4c[nH]c5ccccc45)C(=O)NC3=O)c3ccccc3n2)CC1 [sotrastaurin]
Outline: as §1

[5] = compound: COC1=CC=C(C=C1)CN2C=CC3=C2C=C(C=C3)C(=O)NO
Outline: as §1

filanesib = compound: CON(C)C(=O)N1N=C(c2cc(F)ccc2F)S[C@@]1(CCCN)c1ccccc1 [filanesib]
Outline: as §1

rucaparib = compound: CNCc1ccc(-c2[nH]c3cc(F)cc4c3c2CCNC4=O)cc1 [rucaparib]
Outline: as §1

encorafenib = compound: COC(=O)N[C@@H](C)CNc1nccc(-c2cn(C(C)C)nc2-c2cc(Cl)cc(NS(C)(=O)=O)c2F)n1 [encorafenib]
Outline: as §1

[6] = compound: COc1cc2nc(-c3cc(F)ccc3O)nc(N[C@@H]3CNC[C@H]3C(C)(C)O)c2cc1OC
Outline: as §1

lapatinib = compound: CS(=O)(=O)CCNCc1ccc(-c2ccc3ncnc(Nc4ccc(OCc5cccc(F)c5)c(Cl)c4)c3c2)o1 [lapatinib]
Outline: as §1

Tubastatin A = compound: CN1CCc2c(c3ccccc3n2Cc2ccc(C(=O)NO)cc2)C1 [Tubastatin A]
Outline: as §1

zotarolimus = compound: CO[C@H]1C[C@@H]2CC[C@@H](C)[C@@](O)(O2)C(=O)C(=O)N2CCCC[C@H]2C(=O)O[C@H]([C@H](C)C[C@@H]2CC[C@H](n3cnnn3)[C@H](OC)C2)CC(=O)[C@H](C)/C=C(\C)[C@@H](O)[C@@H](OC)C(=O)[C@H](C)C[C@H](C)/C=C/C=C/C=C/1C [zotarolimus]
Outline: as §1

pictilisib = compound: CS(=O)(=O)N1CCN(Cc2cc3nc(-c4cccc5[nH]ncc45)nc(N4CCOCC4)c3s2)CC1 [pictilisib]
Outline: as §1

alvocidib = compound: CN1CC[C@H](c2c(O)cc(O)c3c(=O)cc(-c4ccccc4Cl)oc23)[C@H](O)C1 [alvocidib]
Outline: as §1

Measured: log2 fold change

TRADD (UniProt Q15628)
inactive: saracatinib -0.163 | [1] -0.011 | defactinib 0.029 | [2] -0.164 | [3] -0.012 | idasanutlin -0.095 | alisertib 0.278 | gefitinib 0.028 | [4] 0.074

TPPP3 (UniProt Q9BW30)
inactive: sotrastaurin -0.107 | [5] 0.003 | filanesib 0.048

TNRC6A (UniProt Q8NDV7)
inactive: alisertib 0.156 | [4] -0.081

TNXB isoform 4 (UniProt P22105)
inactive: rucaparib 0.147 | encorafenib -0.081 | [5] 0.13 | alisertib -0.874 | [4] 0.129

TNKS (UniProt O95271)
inactive: saracatinib 0.109 | [2] -0.416 | [5] 0.242 | idasanutlin 0.323 | [6] 0.225 | lapatinib 0.013

TNK2 isoform 3 (UniProt Q07912)
inactive: saracatinib 0.104 | [1] -0.071 | [2] -0.025

TRABD (UniProt Q9H4I3)
inactive: sotrastaurin 0.003 | Tubastatin A 0.06 | [1] 0.131 | defactinib -0.096 | rucaparib 0.073 | encorafenib -0.01 | [3] -0.033 | [5] 0.001 | filanesib 0.051 | zotarolimus 0.11 | idasanutlin 0.167 | alisertib -0.109 | [6] 0.198 | gefitinib 0.149 | [4] -0.006 | lapatinib 0.081 | pictilisib 0.15

TPRA1 (UniProt Q86W33)
inactive: sotrastaurin -0.083 | [1] 0.07 | defactinib -0.034 | [3] -0.008 | filanesib -0.108 | idasanutlin -0.138 | alisertib 0.117 | gefitinib -0.227 | [4] 0.205 | pictilisib -0.13

TRAF7 (UniProt Q6Q0C0)
inactive: sotrastaurin -0.055 | alvocidib 0.026 | [1] -0.007 | defactinib 0.03 | [3] -0.451 | [5] -0.216 | filanesib -0.107 | zotarolimus 0.081 | idasanutlin 0.033 | alisertib 0.031 | [6] -0.089 | [4] -0.13 | lapatinib 0.057

TOM1 (UniProt O60784)
inactive: sotrastaurin -0.033 | Tubastatin A 0.002 | [1] -0.113 | [5] 0.078 | filanesib -0.061 | alisertib 0.103 | [4] 0.094 | pictilisib 0.171

Reprinted from the results shown (2 entries):
TPRA1 (UniProt Q86W33)
inactive: sotrastaurin -0.083 | [1] 0.07 | defactinib -0.034 | [3] -0.008 | filanesib -0.108 | idasanutlin -0.138 | alisertib 0.117 | gefitinib -0.227 | [4] 0.205 | pictilisib -0.13

TRAF7 (UniProt Q6Q0C0)
inactive: sotrastaurin -0.055 | alvocidib 0.026 | [1] -0.007 | defactinib 0.03 | [3] -0.451 | [5] -0.216 | filanesib -0.107 | zotarolimus 0.081 | idasanutlin 0.033 | alisertib 0.031 | [6] -0.089 | [4] -0.13 | lapatinib 0.057

The list goes on:

TOR1AIP2 (UniProt Q9H496)
inactive: rucaparib 0.142 | encorafenib -0.1 | alisertib 0.099 | gefitinib 0.089 | [4] -0.029

TRIT1 (UniProt Q9H3H1)
inactive: alvocidib -0.123 | rucaparib 0.423 | encorafenib 0.066 | [5] -0.026 | zotarolimus 0.092

TRIM41 (UniProt Q8WV44)
inactive: defactinib -0.142 | [3] 0.154

TRAF3 (UniProt Q13114)
inactive: defactinib 0.1 | [3] 0.023

TRAM2 (UniProt Q15035)
inactive: sotrastaurin 0.068 | alvocidib -0.101 | Tubastatin A -0.096 | [1] -0.089 | defactinib -0.03 | rucaparib -0.009 | encorafenib 0.046 | [3] 0.03 | filanesib -0.147 | zotarolimus -0.047 | idasanutlin 0.038 | [6] -0.022 | lapatinib -0.103

TRPT1 isoform 4 (UniProt Q86TN4)
inactive: sotrastaurin -0.208 | [1] -0.069 | rucaparib 0.101 | encorafenib 0.036 | [5] -0.088 | filanesib -0.053 | idasanutlin -0.194 | alisertib -0.055 | [4] -0.061
